For part of these data: Negatives hold for the conditions tested. For part of these data: Protein sequences can lack the tags named with them. Construct, isoform or probe ends are uncertain for at least one entry. For part of these data: At least one verdict rests on a figure or table, not on a statement of the authors.
What was measured:
[1] = tested on: DNA ligase I (Homo sapiens); test: TR-FRET; details: bridging read-out only, end type not stated; 50 mM HEPES-NaOH pH 7.5, 80 mM NaCl, 5 mM MgCl2, 1 mM DTT, 1 mM ATP, 50 ug/ml BSA; anisotropy 25 C (25 nM DNA), TR-FRET room temperature, pull-down 4 C; recombinant protein
[2] = tested on: T1, DNA ligase III beta (LigIII) (Homo sapiens); test: TR-FRET; details: 50 mM HEPES-NaOH pH 7.5, 80 mM NaCl, 5 mM MgCl2, 1 mM DTT, 1 mM ATP, 50 ug/ml BSA, anisotropy 25 C (25 nM DNA), TR-FRET room temperature, pull-down 4 C, recombinant protein
T1 sequence (looked up): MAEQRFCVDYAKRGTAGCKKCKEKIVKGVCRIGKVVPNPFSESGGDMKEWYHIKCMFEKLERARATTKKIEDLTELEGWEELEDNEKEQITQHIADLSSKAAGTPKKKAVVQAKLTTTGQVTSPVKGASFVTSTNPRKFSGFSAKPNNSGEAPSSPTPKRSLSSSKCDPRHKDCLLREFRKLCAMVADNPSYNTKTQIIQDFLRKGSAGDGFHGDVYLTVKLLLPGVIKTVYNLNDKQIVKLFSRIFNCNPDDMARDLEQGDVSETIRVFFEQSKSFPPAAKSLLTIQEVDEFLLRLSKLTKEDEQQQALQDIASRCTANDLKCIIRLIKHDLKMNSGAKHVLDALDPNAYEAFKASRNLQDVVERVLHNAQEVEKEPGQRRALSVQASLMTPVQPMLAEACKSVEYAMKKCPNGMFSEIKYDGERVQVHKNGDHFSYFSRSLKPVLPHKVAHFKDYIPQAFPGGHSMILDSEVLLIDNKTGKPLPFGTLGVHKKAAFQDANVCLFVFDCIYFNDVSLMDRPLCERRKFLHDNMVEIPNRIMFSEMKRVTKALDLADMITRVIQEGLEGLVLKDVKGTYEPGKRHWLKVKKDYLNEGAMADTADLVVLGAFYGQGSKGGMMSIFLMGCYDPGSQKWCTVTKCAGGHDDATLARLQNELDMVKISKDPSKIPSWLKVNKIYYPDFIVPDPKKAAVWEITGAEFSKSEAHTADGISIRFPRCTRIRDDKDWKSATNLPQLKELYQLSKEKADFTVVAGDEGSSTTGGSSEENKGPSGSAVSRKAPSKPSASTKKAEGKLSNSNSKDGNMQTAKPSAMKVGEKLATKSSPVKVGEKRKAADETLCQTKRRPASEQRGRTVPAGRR

Chains of the proteins cited; added tags and fusions are not shown. A line that says so, or that is headed by a name, gives the form on record, which may keep a tag or linker.
DNA ligase I (Homo sapiens), one chain, as listed by the source: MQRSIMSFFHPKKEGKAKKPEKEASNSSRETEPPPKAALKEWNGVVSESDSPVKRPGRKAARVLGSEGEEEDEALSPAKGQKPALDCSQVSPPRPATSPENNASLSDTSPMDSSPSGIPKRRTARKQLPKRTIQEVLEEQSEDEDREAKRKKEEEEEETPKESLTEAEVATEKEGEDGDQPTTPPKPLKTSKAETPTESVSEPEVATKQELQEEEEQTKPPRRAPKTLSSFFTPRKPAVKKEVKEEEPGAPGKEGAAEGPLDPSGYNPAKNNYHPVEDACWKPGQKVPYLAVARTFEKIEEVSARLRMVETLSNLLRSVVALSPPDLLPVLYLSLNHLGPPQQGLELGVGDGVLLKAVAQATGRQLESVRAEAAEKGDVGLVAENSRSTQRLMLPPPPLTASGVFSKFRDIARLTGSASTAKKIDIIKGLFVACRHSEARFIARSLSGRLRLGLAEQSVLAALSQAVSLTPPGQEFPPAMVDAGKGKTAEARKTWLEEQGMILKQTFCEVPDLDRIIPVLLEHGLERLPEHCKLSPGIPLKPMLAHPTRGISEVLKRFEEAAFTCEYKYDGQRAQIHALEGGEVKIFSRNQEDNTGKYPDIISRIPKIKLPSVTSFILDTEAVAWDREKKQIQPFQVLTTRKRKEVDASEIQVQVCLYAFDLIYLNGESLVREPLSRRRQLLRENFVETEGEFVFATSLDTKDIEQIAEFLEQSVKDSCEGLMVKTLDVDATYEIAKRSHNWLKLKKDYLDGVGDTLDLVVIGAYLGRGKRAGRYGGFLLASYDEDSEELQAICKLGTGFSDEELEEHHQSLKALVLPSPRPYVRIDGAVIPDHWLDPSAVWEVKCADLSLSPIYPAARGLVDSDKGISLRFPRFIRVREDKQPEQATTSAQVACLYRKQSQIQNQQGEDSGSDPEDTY

[3] = tested on: T2, LigIII, deadenylated (Homo sapiens); test: TR-FRET; details: end type not stated, 50 mM HEPES-NaOH pH 7.5, 80 mM NaCl, 5 mM MgCl2, 1 mM DTT, 1 mM ATP, 50 ug/ml BSA, anisotropy 25 C (25 nM DNA), TR-FRET room temperature, pull-down 4 C, recombinant protein, residues 1-862, protein details: N-terminal His (pQE32)
T2 sequence (looked up): T1 sequence (looked up)

[4] = tested on: T3, ΔOBD LigIII (Homo sapiens); test: TR-FRET; details: bridging read-out only, end type not stated; 50 mM HEPES-NaOH pH 7.5, 80 mM NaCl, 5 mM MgCl2, 1 mM DTT, 1 mM ATP, 50 ug/ml BSA; anisotropy 25 C (25 nM DNA), TR-FRET room temperature, pull-down 4 C; recombinant protein; residues 1-595; protein details: C-terminal His (pET28a)
T3 sequence (looked up): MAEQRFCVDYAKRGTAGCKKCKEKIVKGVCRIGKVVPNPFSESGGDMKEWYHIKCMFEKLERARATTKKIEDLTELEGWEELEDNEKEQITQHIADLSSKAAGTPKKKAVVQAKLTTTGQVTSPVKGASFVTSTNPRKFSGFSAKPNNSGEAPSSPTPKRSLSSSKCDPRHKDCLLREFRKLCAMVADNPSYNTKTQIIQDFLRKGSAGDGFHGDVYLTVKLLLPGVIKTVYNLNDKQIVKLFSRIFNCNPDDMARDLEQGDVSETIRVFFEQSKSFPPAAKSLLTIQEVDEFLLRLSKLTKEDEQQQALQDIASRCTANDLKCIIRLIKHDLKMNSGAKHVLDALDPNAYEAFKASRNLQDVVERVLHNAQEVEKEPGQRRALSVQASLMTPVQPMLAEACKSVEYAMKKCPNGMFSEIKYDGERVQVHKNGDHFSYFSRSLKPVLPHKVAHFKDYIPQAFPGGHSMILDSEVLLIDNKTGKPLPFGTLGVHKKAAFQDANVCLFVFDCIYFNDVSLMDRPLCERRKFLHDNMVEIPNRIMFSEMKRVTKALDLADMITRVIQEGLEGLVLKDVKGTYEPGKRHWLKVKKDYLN

[5] = tested on: T4, ΔZnF LigIII (Homo sapiens); test: TR-FRET; details: bridging read-out only, end type not stated; 50 mM HEPES-NaOH pH 7.5, 80 mM NaCl, 5 mM MgCl2, 1 mM DTT, 1 mM ATP, 50 ug/ml BSA; anisotropy 25 C (25 nM DNA), TR-FRET room temperature, pull-down 4 C; recombinant protein; residues 170-749; protein details: N-terminal His (pET28a)
T4 sequence (looked up): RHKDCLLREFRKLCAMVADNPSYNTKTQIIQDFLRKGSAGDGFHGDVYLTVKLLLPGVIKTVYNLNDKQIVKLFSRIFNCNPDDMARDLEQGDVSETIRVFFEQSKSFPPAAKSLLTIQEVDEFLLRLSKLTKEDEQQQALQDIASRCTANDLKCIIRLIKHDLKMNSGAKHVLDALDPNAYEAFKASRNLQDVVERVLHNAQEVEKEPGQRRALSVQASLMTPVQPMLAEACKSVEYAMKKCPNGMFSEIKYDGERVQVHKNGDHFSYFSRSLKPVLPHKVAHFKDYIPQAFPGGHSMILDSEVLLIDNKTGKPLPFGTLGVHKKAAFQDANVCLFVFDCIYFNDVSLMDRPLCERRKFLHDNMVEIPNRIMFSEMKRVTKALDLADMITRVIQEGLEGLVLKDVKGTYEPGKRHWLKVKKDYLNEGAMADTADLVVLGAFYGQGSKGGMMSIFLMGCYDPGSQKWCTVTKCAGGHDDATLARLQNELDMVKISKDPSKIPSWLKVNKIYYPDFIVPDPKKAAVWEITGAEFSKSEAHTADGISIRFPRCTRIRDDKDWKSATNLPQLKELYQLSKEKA

[6] = tested on: T1, DNA ligase III beta (LigIII) (Homo sapiens); test: pull-down; details: 50 mM HEPES-NaOH pH 7.5, 80 mM NaCl, 5 mM MgCl2, 1 mM DTT, 1 mM ATP, 50 ug/ml BSA, anisotropy 25 C (25 nM DNA), TR-FRET room temperature, pull-down 4 C, recombinant protein, residues 1-862, protein details: N-terminal His (pQE32)
[7] = tested on: T4, ΔZnF LigIII (Homo sapiens); test: pull-down; details: bridging read-out only, binds single duplex; 50 mM HEPES-NaOH pH 7.5, 80 mM NaCl, 5 mM MgCl2, 1 mM DTT, 1 mM ATP, 50 ug/ml BSA; anisotropy 25 C (25 nM DNA), TR-FRET room temperature, pull-down 4 C; recombinant protein; residues 170-749; protein details: N-terminal His (pET28a)
[8] = tested on: T3, ΔOBD LigIII (Homo sapiens); test: fluorescence anisotropy; details: Kapp, 5 mM Mg2+, 1 mM ATP, protein assignment from order of extracted table, 50 mM HEPES-NaOH pH 7.5, 80 mM NaCl, 5 mM MgCl2, 1 mM DTT, 50 ug/ml BSA, anisotropy 25 C (25 nM DNA), TR-FRET room temperature, pull-down 4 C, recombinant protein, residues 1-595, protein details: C-terminal His (pET28a), label: 5'-FITC on strand 1
[9] = tested on: T4, ΔZnF LigIII (Homo sapiens); test: fluorescence anisotropy; details: Kapp, 5 mM Mg2+, 1 mM ATP, protein assignment from order of extracted table, 50 mM HEPES-NaOH pH 7.5, 80 mM NaCl, 5 mM MgCl2, 1 mM DTT, 50 ug/ml BSA, anisotropy 25 C (25 nM DNA), TR-FRET room temperature, pull-down 4 C, recombinant protein, residues 170-749, protein details: N-terminal His (pET28a), label: 5'-FITC on strand 1

## AGTGAATTCGAGCTCG / AATCGAGCTCGCAATTCACT / CATGATTACGG / ATTCCGTAATCATG [bridged pair, complementary 3-nt overhangs]
[1]
  binding result: no binding
[2]; 5 mM EDTA added, bridging read-out only, end type not stated, residues 1-862, protein details: N-terminal His (pQE32)
  binding result: no binding
[2]; DNA bridging, 5 mM Mg2+, residues 1-862, protein details: N-terminal His (pQE32)
  binding result: binds
[3]; ATP added back, bridging restored
  binding result: binds
[3]; no ATP, bridging read-out only
  binding result: no binding
[4]
  binding result: no binding
[5]
  binding result: no binding
[6]; bridging, biotin DNA on beads
  binding result: binds
[7]
  binding result: no binding

## AGTGAATTCGAGCTCG / AATCGAGCTCGCAATTCACT / CATGATTACGG / CCGTAATCATG [mismatched pair: biotin overhang + FITC blunt]
[6]; bridging read-out only, data not shown, label: 5'-biotin on S1, 5'-FITC on S3, letters put together from the description
  binding result: no binding

## CATGATTACGG / ATTCCGTAATCATG [FITC duplex with 3-nt 5' overhang]
[8]
  Kd: 308 nM
[9]
  Kd: 166 nM

Source: paper PMC4538836
